Measurements from ChEMBL document CHEMBL5728977, “Therapeutic compounds and uses thereof” (2022).

Protein sequences, listed by entry. Tags and fused reporters are not part of them.
UniProt Q92793, whole entry: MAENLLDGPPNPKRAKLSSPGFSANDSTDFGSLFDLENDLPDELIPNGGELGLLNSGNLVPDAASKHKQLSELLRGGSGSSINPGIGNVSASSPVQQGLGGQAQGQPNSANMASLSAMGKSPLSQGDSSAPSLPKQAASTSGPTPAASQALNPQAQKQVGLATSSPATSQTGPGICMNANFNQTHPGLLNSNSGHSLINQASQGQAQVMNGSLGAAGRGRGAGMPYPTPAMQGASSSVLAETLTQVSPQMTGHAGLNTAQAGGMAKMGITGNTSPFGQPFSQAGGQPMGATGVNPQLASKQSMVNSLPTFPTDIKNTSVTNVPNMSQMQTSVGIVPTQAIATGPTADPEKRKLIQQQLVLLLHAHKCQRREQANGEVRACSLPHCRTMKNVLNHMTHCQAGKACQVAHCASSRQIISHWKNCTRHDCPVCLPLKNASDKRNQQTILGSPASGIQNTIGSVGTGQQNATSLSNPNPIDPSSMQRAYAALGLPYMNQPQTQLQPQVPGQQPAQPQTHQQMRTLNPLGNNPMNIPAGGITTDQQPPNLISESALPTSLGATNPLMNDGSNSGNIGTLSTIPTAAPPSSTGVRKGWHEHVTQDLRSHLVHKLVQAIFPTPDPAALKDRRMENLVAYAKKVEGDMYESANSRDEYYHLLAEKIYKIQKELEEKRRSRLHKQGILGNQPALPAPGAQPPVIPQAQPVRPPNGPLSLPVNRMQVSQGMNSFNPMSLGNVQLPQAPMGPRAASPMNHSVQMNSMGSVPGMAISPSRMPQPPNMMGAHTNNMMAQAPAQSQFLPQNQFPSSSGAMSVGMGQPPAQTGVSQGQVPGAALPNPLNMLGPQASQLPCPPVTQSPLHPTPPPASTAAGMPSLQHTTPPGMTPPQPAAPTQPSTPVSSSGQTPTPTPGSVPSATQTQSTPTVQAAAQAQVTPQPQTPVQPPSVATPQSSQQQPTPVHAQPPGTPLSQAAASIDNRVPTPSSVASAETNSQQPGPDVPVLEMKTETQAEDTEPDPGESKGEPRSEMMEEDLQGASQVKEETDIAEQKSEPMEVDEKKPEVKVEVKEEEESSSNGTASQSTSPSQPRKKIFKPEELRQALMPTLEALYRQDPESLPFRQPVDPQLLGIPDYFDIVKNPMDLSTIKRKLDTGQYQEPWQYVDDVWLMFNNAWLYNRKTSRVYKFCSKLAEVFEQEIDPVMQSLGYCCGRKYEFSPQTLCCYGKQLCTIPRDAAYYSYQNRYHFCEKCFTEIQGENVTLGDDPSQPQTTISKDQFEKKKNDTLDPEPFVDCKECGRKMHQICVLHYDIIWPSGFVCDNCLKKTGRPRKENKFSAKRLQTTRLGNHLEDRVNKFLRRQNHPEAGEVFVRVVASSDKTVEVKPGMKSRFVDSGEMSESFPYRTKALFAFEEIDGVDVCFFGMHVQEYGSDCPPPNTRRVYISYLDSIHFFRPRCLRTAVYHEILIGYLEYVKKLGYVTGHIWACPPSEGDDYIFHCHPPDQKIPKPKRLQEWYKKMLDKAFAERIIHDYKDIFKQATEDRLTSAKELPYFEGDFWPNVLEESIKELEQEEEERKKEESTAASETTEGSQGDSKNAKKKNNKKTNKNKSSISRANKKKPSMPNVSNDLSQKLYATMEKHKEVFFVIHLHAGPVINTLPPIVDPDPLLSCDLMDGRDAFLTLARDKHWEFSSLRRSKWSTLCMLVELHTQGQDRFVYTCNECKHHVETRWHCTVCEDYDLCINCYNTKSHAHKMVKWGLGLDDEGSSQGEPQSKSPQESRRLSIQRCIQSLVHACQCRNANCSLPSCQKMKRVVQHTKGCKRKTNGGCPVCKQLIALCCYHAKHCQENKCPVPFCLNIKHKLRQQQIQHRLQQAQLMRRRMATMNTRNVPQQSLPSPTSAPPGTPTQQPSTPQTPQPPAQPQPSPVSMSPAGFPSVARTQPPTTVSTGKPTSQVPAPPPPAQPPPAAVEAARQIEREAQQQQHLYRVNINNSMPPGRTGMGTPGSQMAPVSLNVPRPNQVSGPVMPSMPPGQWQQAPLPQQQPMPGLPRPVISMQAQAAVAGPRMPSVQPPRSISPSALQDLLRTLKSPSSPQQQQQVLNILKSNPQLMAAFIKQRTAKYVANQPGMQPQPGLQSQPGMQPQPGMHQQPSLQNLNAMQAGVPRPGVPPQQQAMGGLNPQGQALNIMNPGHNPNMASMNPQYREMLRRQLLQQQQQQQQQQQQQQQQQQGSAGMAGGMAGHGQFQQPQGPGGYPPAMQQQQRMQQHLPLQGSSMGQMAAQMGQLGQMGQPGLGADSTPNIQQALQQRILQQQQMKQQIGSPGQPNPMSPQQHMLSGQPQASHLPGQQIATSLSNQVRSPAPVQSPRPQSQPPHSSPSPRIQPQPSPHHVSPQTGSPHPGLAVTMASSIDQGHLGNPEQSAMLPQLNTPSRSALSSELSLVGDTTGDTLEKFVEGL

Biological target: CREB-binding protein (Homo sapiens, UniProt Q92793)

## COc1ccc(C2=NC3C=CC=C(c4nn(C5CCOCC5)c5c4CN(C(C)=O)CC5)C3O2)cc1 (stereo unspecified)
  IC50: 4.11 nM
